# Experimental data reported in the supplement of paper PMC7024190.
# Where a name gives a salt, the structure may show the parent alone. The list shows a part of the results. Repeats in this data set agree poorly, so a single value says little.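 Human embryonic kidney cells were transiently transfected with a plasmid bearing a Renilla luciferase gene under the HSV-TK promoter. This first-round screen tests roughly ten thousand compounds for ones that increase reporter output.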
# Test system: HEK 293FT
# Experiment: log relative Renilla luciferase luminescence (reporter expression vs reference, reference not stated) (log (base not stated)); higher = higher recombinant reporter expression
# Conditions: 10 µM; time after transfection 48 h
row,SMILES,log
1,CCCN1CCO[C@@H]2c3cc(O)ccc3OC[C@H]21,-0.076
2,Cc1cc(SCc2sc(-c3ccc(C(F)(F)F)c(F)c3)nc2C)ccc1OCC(=O)O,-0.159
3,O=C1/C(=C/c2ccccc2)C[C@@]2(O)[C@H]3Cc4ccc(O)c5c4[C@@]2(CCN3CC2CC2)[C@H]1O5 [BNTX maleate],-0.0585
4,C[C@H](N)Cn1ccc2cc(F)c(Cl)cc21 [Ro 60-0175 fumarate],0.0438
5,Oc1ccc2c3c1O[C@H]1c4oc5ccccc5c4C[C@@]4(O)[C@@H](C2)N(CC2CC2)CC[C@]314 [Naltriben mesylate],-0.089
6,C/C(O)=C(\C#N)C(=O)Nc1cc(Br)ccc1Br,-0.00324
7,Fc1ccc(C(OCCN2CCN(C/C=C/c3ccccc3)CC2)c2ccc(F)cc2)cc1,0.146
8,OC1CCCCC1N1CCC(c2ccccc2)CC1 (racemic) [(±)-Vesamicol hydrochloride],-0.0186
9,"Cc1cc(C)cc(C(=O)OC2C[C@H]3CC[C@@H](C2)N3C)c1 (some centres undefined) [Tropanyl-3,5-dimethylbenzoate]",-0.0488
10,O=C1Nc2cc(Cl)c(Cl)cc2N2CCNCC12 (centres undefined),-0.0637
11,O=c1[nH]c2ccccc2n1C1CCN(CCCC(c2ccc(F)cc2)c2ccc(F)cc2)CC1 [Pimozide],-0.275
12,N[C@@]1(C(=O)O)CC[C@@H](C(=O)O)C1,0.131
13,COC1(C[S@+]([O-])c2ccccc2)CCN(CCc2c[nH]c3ccc(F)cc23)CC1,-0.112
14,CC(C)(C)NCC(O)COc1cccc2[nH]c(C#N)cc12 (centres undefined) [Cyanopindolol hemifumarate],-0.00867
15,CC(C)n1cnc2c(C(=O)N[C@H]3CN4CCC3CC4)cc(Cl)cc21,0.103
16,CN1C(=O)CCS(=O)(=O)C1c1ccc(Cl)cc1 (centres undefined) [Chlormezanone],-0.0609
17,Cc1ncc(CN2CC=C(c3ccccc3)CC2)c(N)n1,-0.399
18,COc1ccc(CNC(=O)/C=C/c2ccc3[nH]cc(CCN(C)C)c3c2)cc1,-0.0709
19,CCOC(=O)c1ncn2c1[C@@H]1CCCN1C(=O)c1cc(OC)ccc1-2,-0.0747
20,O=C(CCCN1CCC2(CC1)C(=O)N(Cc1cccc(F)c1)CN2c1ccccc1)c1ccc(F)cc1 [3'-Fluorobenzylspiperone maleate],0.0428

row,SMILES,log
1,COc1cc2c(cc1O)C(CCc1ccc(Cl)cc1)N(C)CC2 (centres undefined),0.0158
2,CC(C)NCC(O)c1ccc(N)c(C#N)c1 (centres undefined) [Cimaterol],-0.0369
3,CN1[C@@H]2CC[C@H]1CC(OC(=O)N1Cc3ccccc3NC1=O)C2 (some centres undefined) [DAU 5884 hydrochloride],-0.0488
4,CN[C@@H]1C[C@@H](c2ccc(Cl)c(Cl)c2)c2ccccc21 [Indatraline hydrochloride],0.153
5,NC(C(=O)O)c1nn[nH]n1 (racemic) [(RS)-(Tetrazol-5-yl)glycine],0.00213
6,Clc1cccc(SC2CCNCC2)n1 [Anpirtoline hydrochloride],-0.00758
7,c1ccc(C2CC2)c(OCC2=NCCN2)c1 [Cirazoline hydrochloride],-0.0956
8,C[C@H]1CCC/C=C/[C@@H]2C[C@H](O)C[C@H]2[C@H](O)/C=C/C(=O)O1 [Brefeldin A],-0.0659
9,Cc1nnc2ccc(-c3cccc(C(F)(F)F)c3)nn12,0.0174
10,Cc1cccc(C(C)c2c[nH]cn2)c1C (centres undefined) [Medetomidine hydrochloride],-0.0983
11,CC(=O)N(C)c1cccc(-c2ccnc3c(C(=O)c4cccs4)cnn23)c1 [Indiplon],-0.089
12,O=C(O)c1nn(Cc2ccc(Cl)cc2Cl)c2ccccc12 [Lonidamine],0.0127
13,CN1C[C@H](C(=O)N[C@]2(C)O[C@@]3(O)[C@@H]4CCCN4C(=O)[C@H](Cc4ccccc4)N3C2=O)C[C@@H]2c3cccc4[nH]cc(c34)C[C@H]21 [Dihydroergotamine mesylate],0.151
14,C=C(C)[C@H]1CN[C@H](C(=O)O)[C@H]1CC(=O)O [Kainic acid],-0.101
15,Cc1ncsc1CCCl [Chlormethiazole hydrochloride],-0.135
16,"c1ccc(C2CNCc3ccccc32)cc1 (centres undefined) [4-Phenyl-1,2,3,4-tetrahydroisoquinoline hydrochloride]",-0.0536
17,CCOC(=O)c1cncn1[C@H](C)c1ccccc1 [Etomidate],0.0808
18,CC(N)Cc1c[nH]c2ccc(OCc3cccs3)cc12 (centres undefined) [BW 723C86 hydrochloride],0.818
19,O=c1[nH]c2ccccc2n1CCCN1CCC(n2c(=O)[nH]c3cc(Cl)ccc32)CC1 [Domperidone],-0.04

# A different layout for 2 compounds above.
row	SMILES	log
3	CN1[C@@H]2CC[C@H]1CC(OC(=O)N1Cc3ccccc3NC1=O)C2 (some centres undefined) [DAU 5884 hydrochloride]	-0.0488
17	CCOC(=O)c1cncn1[C@H](C)c1ccccc1 [Etomidate]	0.0808
